The target of the assay is amyloid plaques in unfixed human AD brain sections (human) (UniProt P05067). The experiment in a line: immunohistochemistry, unfixed human AD brain sections.

Sequences of proteins named here, by UniProt entry; tags and fusion partners are left off. A change or cut given only in a name is not applied to a line headed by its entry.
UniProt P05067: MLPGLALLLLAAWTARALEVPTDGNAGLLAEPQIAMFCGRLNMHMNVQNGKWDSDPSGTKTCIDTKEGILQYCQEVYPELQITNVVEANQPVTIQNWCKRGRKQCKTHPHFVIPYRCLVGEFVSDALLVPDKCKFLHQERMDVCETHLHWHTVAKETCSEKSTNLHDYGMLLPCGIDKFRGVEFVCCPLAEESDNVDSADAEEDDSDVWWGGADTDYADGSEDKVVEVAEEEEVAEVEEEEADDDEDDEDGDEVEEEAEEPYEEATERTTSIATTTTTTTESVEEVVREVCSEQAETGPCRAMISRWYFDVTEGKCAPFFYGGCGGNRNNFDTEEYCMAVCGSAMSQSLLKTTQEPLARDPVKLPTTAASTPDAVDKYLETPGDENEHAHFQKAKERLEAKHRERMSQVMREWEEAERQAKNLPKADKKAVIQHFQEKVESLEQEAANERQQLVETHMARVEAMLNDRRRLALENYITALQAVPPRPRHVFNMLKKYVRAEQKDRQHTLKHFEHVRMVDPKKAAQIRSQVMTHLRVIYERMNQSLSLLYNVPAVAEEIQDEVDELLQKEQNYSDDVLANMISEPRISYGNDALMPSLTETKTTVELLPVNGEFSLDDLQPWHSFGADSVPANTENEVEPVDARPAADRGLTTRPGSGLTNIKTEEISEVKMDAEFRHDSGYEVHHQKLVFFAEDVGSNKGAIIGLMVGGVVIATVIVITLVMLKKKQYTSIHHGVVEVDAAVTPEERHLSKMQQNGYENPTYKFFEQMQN

Results are given in words; binding and its absence hold for the method and conditions named. Some binding calls cover weakened binding; strength is not graded here.

B1: antibody 1.2 (antibody, human IgG1, kappa, V domains shown)
VH: QVTLKESGPVLLKPTETLTLTCTVSGFSLSNARMGVSWIRQPPGKALEWLAHIFSNDEKSYITSLKSRLTISKDTSKSQVVLTMTNMDPVDTATYYCARIPLRSPGAFDIWGQGTMVTVSS
VL: DIVMTQTPLSSPVTLGQPASISCRSSQSLVHSDGNTYLNWLQQRPGQPPRLLIYKISNRFSGVPDRFTGSGAGTDFTLKISRVEAEDVGVYTCMQVTQFPLTFGQGTRLEIKR
As for B1, the binding entry is reported as “binds”.

For the origin of these results see patent publication US20110044986A1.
